From the supplement of paper PMC5949888
Most values lie at the floor of the assay. Slopes are relative: functional sequences can read slightly below zero.

What follows are substances tested on Saccharomyces cerevisiae PS128 hsf1 delta, HSF1(1-493) fusion (assay: growth estimate (transactivation domain function in HSF1 fusion, heat-shock survival) (a.u. (slope of normalised read count over time)); higher = stronger growth at 37°C, i.e. more transactivation activity). Conditions: library: random library.

Substance	growth estimate
NISRPVFAKRIVRSHRTLFA	< -0.25
NITTQHKAVKDSSLKYRYAC	< -0.25
NIYADGLPCTKRLDPRQWLR	< -0.25
NKCADGVARPRSSEVACKPQ	< -0.25
NKES	< -0.25
NKGGEPRETTSTECPSRVVP	< -0.25
NKGLHIGDQHTSVARAGWET	-0.155
NKITWCIL	< -0.25
NKLPLLVLGRCVREPDAKCA	< -0.25
NKLQQKVNISSTPEVH	< -0.25
NKRAGRDPPPRLGRGRIRC	< -0.25
NKRAVRSVGPVSLGVHR	< -0.25
NKRRAHVVGAIQVRRHQCVK	< -0.25
NKTNGVRCLHRFVVLQERTL	< -0.25
NKVLAREVRGATPLTAGFIA	< -0.25
NKVVNTQNYYTAQ	< -0.25
NLAQVVPPWHKSACPREGGP	-0.0976
NLAVGWRSSHPGY	< -0.25
NLCL	< -0.25
NLCVNVGSGASLKGFNWFGA	< -0.25
NLDKAAHSV	< -0.25
NLDTIRL	< -0.25
NLEWIIEKGPCS	< -0.25
NLFDAHCGVDLKFGIESAAL	< -0.25

Substance	growth estimate
NLFQMAWRGLVTTG	< -0.25
NLGGRRRKSSCEIPVGFVYA	< -0.25
NLGYNLGIKRIRVAELEYPR	< -0.25
NLKVGVVQMWI	< -0.25
NLL	< -0.25
NLLASLIQYH	< -0.25
NLLGTGIGKERGVPACGFMD	< -0.25
NLNYHPDTPIARGGHTGWSG	< -0.25
NLPLIWILEGNTSGYSSGGL	< -0.25
NLPQAITLYLVVSSSVPWTE	< -0.25
NLQLRPIESPACRLRGQGST	< -0.25
NLQRAML	< -0.25
NLR	< -0.25
NLRIRGATDRNSEGSITTAH	< -0.25
NLRTLS	< -0.25
NLSNSPYRQKRLRLECSRKH	< -0.25
NLTLKAEQWRVSE	< -0.25
NLTQLYSHETGQKVD	< -0.25
NLVLSKGSTTVWDRRSSSGI	< -0.25
NLVPAKEADLAP	< -0.25
NLWVVLECIVRCVPSWGSLS	< -0.25
NLYTHLHEGLGPVK	< -0.25
NMASGTCSQ	< -0.25
NMGSTDCLLNKVSTLKRCPA	< -0.25

2 consecutive entries out of the list so far:
Substance	growth estimate
NLLGTGIGKERGVPACGFMD	< -0.25
NLNYHPDTPIARGGHTGWSG	< -0.25

Additional records follow.

Substance	growth estimate
NMRGWSLHGDEVKNGSSVMV	< -0.25
NMSGPVLLRGFIDRISLWCH	< -0.25
NNAPATAVWLTVSKFGTHMK	< -0.25
NNE	< -0.25
NNIQISRRDYPGWISLCVAT	< -0.25
NNKR	-0.189
NNQCFYFH	< -0.25
NNSGA	< -0.25
NNSRIATVF	< -0.25
NNSWQTVILNERSHRFVGIQ	< -0.25
NNTGRIAIGIP	< -0.25
NNTRGRTHH	< -0.25
NPAV	< -0.25
NPCSRWQDRAGPGLRTGCAL	< -0.25
NPE	< -0.25
NPEFQHGLMITRRGFSEARS	< -0.25
NPEISGSLFNQGHASAESIK	< -0.25
NPG	< -0.25
NPGERSDARRSQLPIRYSRH	< -0.25
NPGQ	< -0.25
NPIMESAMR	< -0.25
NPKCHII	< -0.25
NPLEIAHLITRQGGPVPAST	< -0.25
NPLIADCRKNSLGWLDVWSA	< -0.25

Substance	growth estimate
NPLKFGELVNLSHRCVTLIH	< -0.25
NPLLAAVSRVQYWLVATQGR	< -0.25
NPR	< -0.25
NPRQLNLHAGVCLRAAILSV	< -0.25
NPSIEHFFETSFGFLSGVYG	< -0.25
NPTGLCLVLSVGDRLGVDFD	< -0.25
NPTVSNALFFIAGG	< -0.25
NPVAQQAGRFTRRPTGIVKQ	-0.192
NPVTK	< -0.25
NQC	< -0.25
NQQCWDRTEKDCSESSVAGQ	-0.248
NQRPRRISRPTVCFWLKLRG	< -0.25
NQRRSKQRVWEGVGMVTVQA	< -0.25
NQTVAGGLSMKIRFRRVLGT	< -0.25
NQVKLTLVRPLIDQETWTRN	< -0.25
NRARHDRC	< -0.25
NRCKSRQQVGVRWRVMSFIA	< -0.25
NRCTYVRVMGAWFVHSLIRR	< -0.25
NRDGPFTVARTLPSVRTPCF	< -0.25
NRDSF	< -0.25
NRDWGQSSVLLLF	< -0.25
NREH	< -0.25
NRFGSRSRWGEVRRDYSLSH	< -0.25
NRFKVFYSRTG	< -0.25

Substance	growth estimate
NRHGETSYQTVVDSAPLSIL	< -0.25
NRIGWLMNLPRVKVSLYSRM	< -0.25
NRILL	< -0.25
NRKCRGSFTCNRSAPSLTPR	< -0.25
NRKCRSQCDQMFRIKVLRPL	< -0.25
NRKRKIVLEANTYC	< -0.25
NRLCGHIRTGLGQSPLNRWQ	< -0.25
NRLEC	< -0.25
NRLLARRHMRVSRCSATSLV	< -0.25
NRLVQA	< -0.25
NRPAARGVNAEIYHCTMNG	< -0.25
NRPG	< -0.25
NRRKAFSSQNNKHSYG	< -0.25
NRRKPDSINPLLTVAQNRHG	< -0.25
NRRLPESLS	< -0.25
NRRLSSCGCTFADRKGRKLG	< -0.25
NRRPLPRSFAPSLEGRQHQV	< -0.25
NRRSPSTGRASTRSRSRSTP	< -0.25
NRRWSILWDARVDVGTTI	< -0.25
NRSPYDGP	< -0.25
NRTMAQLV	< -0.25
NRTQDR	< -0.25
NRVCSASSHWIGHLFYSHG	< -0.25
NRVL	< -0.25

Substance	growth estimate
NRWSWNVRGPPCINDNVCQA	< -0.25
NSAGRKVTYMGTLRSTCPDH	< -0.25
NSARVLLRSDWILNEDAVLV	-0.246
NSCRRNRATPSHRVLTQFFA	< -0.25
NSECPHNPGSVFKTFQLRSP	< -0.25
NSGHKCSPRRTIGVRGSGVG	< -0.25
NSKGKGIRQPTLMPRSLSAV	< -0.25
NSLPSCLTGEVHVSEWPYAR	< -0.25
NSPRRKAVLLGPPVGGG	< -0.25
NSQDLVVARYGCLGASL	< -0.25
NSQTCT	-0.198
NSRAYNATGEVRVWRSGIVP	< -0.25
NSRLARCGSGSQ	< -0.25
NSRPSRYNFEMGSGLSVSAH	< -0.25
NSRVHEMYPRPSGRVNRLMV	< -0.25
NSRVQPVSDLPKV	-0.246
NSS	< -0.25
NSSISFTWLLVV	< -0.25
NSSSPGGPSY	< -0.25
NSSTHVA	-0.15
NSTGYFVSPPHSSAPCLFAL	< -0.25
NSTLISAHETPSDLKCMQCK	< -0.25
NSVTGGIASVSRRKSANLKD	< -0.25
NTGA	< -0.25

Random excerpt: five records from the list.
Substance	growth estimate
NSTLISAHETPSDLKCMQCK	< -0.25
NSCRRNRATPSHRVLTQFFA	< -0.25
NSLPSCLTGEVHVSEWPYAR	< -0.25
NSSTHVA	-0.15
NSSISFTWLLVV	< -0.25
